The results in this text go back to article PMC12339401.

Protein sequences, listed by entry. Tags and fused reporters are not part of them. Lines headed by an entry give the natural chain unless they say otherwise; changes in a name come on top. Residues count along the entry.
UniProt O60238: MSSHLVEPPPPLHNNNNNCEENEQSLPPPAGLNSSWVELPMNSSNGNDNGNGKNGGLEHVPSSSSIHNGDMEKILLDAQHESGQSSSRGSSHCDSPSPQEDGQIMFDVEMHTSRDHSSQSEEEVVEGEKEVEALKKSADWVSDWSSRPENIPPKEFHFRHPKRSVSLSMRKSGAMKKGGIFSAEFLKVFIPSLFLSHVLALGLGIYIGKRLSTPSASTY
NIX(1–182)-GST: residues 1-182 of O60238
UniProt Q9Y6I9: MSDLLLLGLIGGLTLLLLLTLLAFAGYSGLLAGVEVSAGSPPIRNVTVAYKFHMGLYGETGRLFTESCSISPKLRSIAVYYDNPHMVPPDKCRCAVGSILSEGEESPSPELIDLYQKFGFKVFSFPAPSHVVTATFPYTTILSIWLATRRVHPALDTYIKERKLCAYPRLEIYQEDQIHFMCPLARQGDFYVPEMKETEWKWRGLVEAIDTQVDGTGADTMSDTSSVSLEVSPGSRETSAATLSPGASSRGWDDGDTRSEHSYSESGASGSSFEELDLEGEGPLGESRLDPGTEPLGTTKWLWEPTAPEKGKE

In assay [1] the target is NIX(1–182)-GST (human) (UniProt O60238). The assay can be described thus: microscopy-based bead assay; GST-tagged bait on Glutathione Sepharose 4B beads, GFP- or mCherry-tagged prey in solution, confocal imaging; both purified.
The target of assay [2] is TEX264-GFP (human) (UniProt Q9Y6I9). The assay can be described thus: co-IP; TEX264-GFP transiently expressed in HeLa cells, 6 h EBSS starvation; GFP-Trap agarose beads, overnight; immunoblot for WIPI2. (In general: In western blotting, separated proteins are transferred to a membrane and probed.)
Assay [3] deals with V5-NIX (human) (UniProt O60238). The assay can be described thus: co-IP; V5-NIX in BNIP3/NIX double-knockout HeLa cells, where indicated treated with DFP; anti-V5 agarose beads, overnight; immunoblot for WIPI2.
Assay [4] concerns the target NIX(1–182)-GST (human) (UniProt O60238). The experiment in a line: pull-down; beads precoated with GST, NIX-GST or BNIP3-GST, incubated overnight with HeLa cell lysate, SDS–PAGE and western blot for WIPI proteins; only the target purified.

Results are given in words; binding and its absence hold for the method and conditions named. For some of these results: In cells and extracts the contact can be indirect. Some binding calls cover weakened binding; strength is not graded here. For some of these results: Where a sequence is shown, tags or fusion partners need not be part of it.

B1: GFP-tagged TBK1 (enzyme, UniProt Q9UHD2 1-729)
chain: MQSTSNHLWLLSDILGQGATANVFRGRHKKTGDLFAIKVFNNISFLRPVDVQMREFEVLKKLNHKNIVKLFAIEEETTTRHKVLIMEFCPCGSLYTVLEEPSNAYGLPESEFLIVLRDVVGGMNHLRENGIVHRDIKPGNIMRVIGEDGQSVYKLTDFGAARELEDDEQFVSLYGTEEYLHPDMYERAVLRKDHQKKYGATVDLWSIGVTFYHAATGSLPFRPFEGPRRNKEVMYKIITGKPSGAISGVQKAENGPIDWSGDMPVSCSLSRGLQVLLTPVLANILEADQEKCWGFDQFFAETSDILHRMVIHVFSLQQMTAHKIYIHSYNTATIFHELVYKQTKIISSNQELIYEGRRLVLEPGRLAQHFPKTTEENPIFVVSREPLNTIGLIYEKISLPKVHPRYDLDGDASMAKAITGVVCYACRIASTLLLYQELMRKGIRWLIELIKDDYNETVHKKTEVVITLDFCIRNIEKTVKVYEKLMKINLEAAELGEISDIHTKLLRLSSSQGTIETSLQDIDSRLSPGGSLADAWAHQEGTHPKDRNVEKLQVLLNCMTEIYYQFKKDKAERRLAYNEEQIHKFDKQKLYYHATKAMTHFTDECVKKYEAFLNKSEEWIRKMLHLRKQLLSLTNQCFDIEEEVSKYQEYTNELQETLPQKMFTASSGIKHTMTPIYPSSNTLVEMTLGMKKLKEEMEGVVKELAENNHILERFGSLTMDGGLRNVDCL
Consider B1, for which, in assay [1], the binding result is “no binding”.

B2: WIPI2 (endogenous) (protein, UniProt Q9Y4P8 1-454)
chain: MNLASQSGEAGAGQLLFANFNQDNTEVKGASRAAGLGRRAVVWSLAVGSKSGYKFFSLSSVDKLEQIYECTDTEDVCIVERLFSSSLVAIVSLKAPRKLKVCHFKKGTEICNYSYSNTILAVKLNRQRLIVCLEESLYIHNIRDMKVLHTIRETPPNPAGLCALSINNDNCYLAYPGSATIGEVQVFDTINLRAANMIPAHDSPLAALAFDASGTKLATASEKGTVIRVFSIPEGQKLFEFRRGVKRCVSICSLAFSMDGMFLSASSNTETVHIFKLETVKEKPPEEPTTWTGYFGKVLMASTSYLPSQVTEMFNQGRAFATVRLPFCGHKNICSLATIQKIPRLLVGAADGYLYMYNLDPQEGGECALMKQHRLDGSLETTNEILDSASHDCPLVTQTYGAAAGKGTYVPSSPTRLAYTDDLGAVGGACLEDEASALRLDEDSEHPPMILRTD
In the case of B2, the binding entry in assay [2], in assay [3] and in assay [4] was “binds” throughout.
